These results are taken from publication PMC6117100.

No constants are given. Whether binding was seen depends on the method and setting. Binding calls can cover weak binding; strength is not graded here. Where a sequence is shown, tags or fusion partners need not be part of it.

In the test the target is SIVcol Nef wt (MaMTH Bait, V5-tagged) (SIVcol (from Colobus guereza)). The experiment in a line: two-hybrid.

B1: SERINC5 (MaMTH Prey, FLAG-tagged) (protein, UniProt Q86VE9 1-423)
chain: MSAQCCAGQLACCCGSAGCSLCCDCCPRIRQSLSTRFMYALYFILVVVLCCIMMSTTVAHKMKEHIPFFEDMCKGIKAGDTCEKLVGYSAVYRVCFGMACFFFIFCLLTLKINNSKSCRAHIHNGFWFFKLLLLGAMCSGAFFIPDQDTFLNAWRYVGAVGGFLFIGIQLLLLVEFAHKWNKNWTAGTASNKLWYASLALVTLIMYSIATGGLVLMAVFYTQKDSCMENKILLGVNGGLCLLISLVAISPWVQNRQPHSGLLQSGVISCYVTYLTFSALSSKPAEVVLDEHGKNVTICVPDFGQDLYRDENLVTILGTSLLIGCILYSCLTSTTRSSSDALQGRYAAPELEIARCCFCFSPGGEDTEEQQPGKEGPRVIYDEKKGTVYIYSYFHFVFFLASLYVMMTVTNWFNHVRSAFHLLP
For the molecule B1, the binding result is recorded as “binds”.
